{"source": "patent US20260083702A1", "about": "“INHALATION FORMULATION FOR TREATING IPF DISEASE AND PREPARATION METHOD THEREFOR” (SUZHOU INHAL PHARMA CO., LTD., priority 2023, published 2026)", "type_in_all_cases": "in vivo, C57/BL6J mice", "key": {"[1]": {"tested_on": "mice with pulmonary fibrosis", "experiment": "HE staining of lungs in bleomycin pulmonary fibrosis model (Experimental Example 4)", "conditions": "FIG. 8", "source_text": "(§1) Establishment of pulmonary fibrosis model: 6-8 week old C57/BL6J mice were selected and acclimatized for one week. The mice were divided into blank control group, model group, apremilast inhalation (Example 2) treatment group, roflumilast inhalation (Example 5) treatment group, crisaborole inhalation (Example 3) treatment group, ibudilast inhalation (Example 10) treatment group, difamilast inhalation (Example 9) treatment group, ibudilast oral administration (Comparative Example 3) treatment group, difamilast oral administration (Comparative Example 4) treatment group, and nintedanib oral administration (Comparative Example 2, nintedanib is a commonly used drug for treating IPF in the prior art) treatment group, with n=8 in each group. On the first day, the mice in the model group and the treatment groups were administered bleomycin solution (3 mg/kg/50 μl) via tracheal instillation, while the control group was treated with an equal volume of physiological saline. Treatment began in each treatment group one week later and lasted for two weeks, and a total of three weeks was required. […]"}, "[2]": {"tested_on": "mice with pulmonary fibrosis", "experiment": "Weight measurement in bleomycin pulmonary fibrosis model (Experimental Example 4)", "conditions": "FIGS. 5 and 6", "source_text": "as §1, with “saline.” for “saline. Treatment began in each treatment group one week later and lasted for two weeks, and a total of three weeks was required.”\nWeight measurement: The weight of mice was measured and recorded at a fixed time on the morning each week, and the weight changes of mice in each group at different times were observed.\n(§2) Statistical analysis: The results were statistically analyzed using Graphpad Prism 9.0 software for the experimental data of each group. […] The measurement data were expressed as mean±standard deviation (mean±SD). […]"}, "[3]": {"tested_on": "mice with pulmonary fibrosis", "experiment": "Detection of MDA and HYP content in the lungs, bleomycin pulmonary fibrosis model (Experimental Example 4)", "conditions": "compared with model group; FIG. 9", "experimental": "Establishment of pulmonary fibrosis model: 6-8 week old C57/BL6J mice were selected and acclimatized for one week. […]\nDetection of malondialdehyde (MDA) and hydroxyproline (HYP) content in the lungs: An appropriate amount of lung tissue was taken from the mice in each group, homogenized (the ground tissue was centrifuged at 3000 rpm for 10 min and the supernatant was taken for later use), and the MDA and HYP content in the lungs was detected according to the kit instructions (MDA stands for malondialdehyde, a product of lipid peroxidation that reflects oxidative damage; HYP (hydroxyproline) level reflects the degree of fibrotic deposition in the lungs).\nas §2"}, "[4]": {"tested_on": "mice with pulmonary fibrosis", "experiment": "MASSON staining of lungs in bleomycin pulmonary fibrosis model (Experimental Example 4)", "conditions": "FIG. 7", "source_text": "as §1"}}, "note": "At least one compound was matched to its structure with a doubt left.", "data": [{"molecule": "CC(C)C(=O)c1c(C(C)C)nn2ccccc12", "note": "[Comparative Example 3, ibudilast]", "values": [{"measurement": "inflammatory cell infiltration (HE staining)", "setting": "[1]", "result": "a few inflammatory cell infiltrations"}, {"measurement": "alveolar structure (HE staining)", "setting": "[1]; compared with the model group", "result": "improved the alveolar structure"}, {"measurement": "weight recovery", "setting": "[2]; 14th day compared to the 7th day after model establishment", "result": "significant weight recovery"}, {"measurement": "weight recovery", "setting": "[2]; compared with the model group", "result": "significant weight recovery"}, {"measurement": "HYP content in the lungs (collagen deposition)", "setting": "[3]", "result": "slight downward trend, but this did not have statistical significance"}, {"measurement": "MDA content in the lungs (oxidative stress level)", "setting": "[3]", "result": "slight downward trend, but this did not have statistical significance"}, {"measurement": "collagen fibers / collagen deposition (MASSON staining)", "setting": "[4]; compared with the model group", "result": "reduced collagen deposition"}, {"measurement": "lung damage / pathological changes (MASSON staining)", "setting": "[4]; inhalation groups compared with model group, oral groups compared with inhalation groups", "result": "slightly thickened alveolar interstitium and a few visible collagen fibers"}]}]}
